Source: paper PMC8748404 (Angewandte Chemie (International ed. in English), 2021)

Assays:
[1] = test system: PB1-BD2, PB1-BD4, PB1-BD5, BRD7 and BRD9; assay: concurrent screening against five bromodomain proteins; format: binding; details: five bromodomain proteins screened concurrently
[2] = biological target: PB1-BD2/4/5; assay: DNA-based ligand displacement assay, IC50 determination of hit compounds; format: binding

binding to respective bromodomains (IC50 determination) [2]: potent binding
SMILES: COc1cc2nc(N3CCCC3)nc(NCCCCCN3CCCC3)c2cc1OC [UNC-0379]
selectivity in concurrent screen [1]: selectivity for PB1-BD2/4/5 over BRD7/9
